Results taken from publication PMC11193246.
No constants are given. Whether binding was seen depends on the method and setting. In cells and extracts the contact can be indirect. Some binding calls cover weakened binding; strength is not graded here.

Chains of the proteins cited; added tags and fusions are not shown.
UniProt Q14790: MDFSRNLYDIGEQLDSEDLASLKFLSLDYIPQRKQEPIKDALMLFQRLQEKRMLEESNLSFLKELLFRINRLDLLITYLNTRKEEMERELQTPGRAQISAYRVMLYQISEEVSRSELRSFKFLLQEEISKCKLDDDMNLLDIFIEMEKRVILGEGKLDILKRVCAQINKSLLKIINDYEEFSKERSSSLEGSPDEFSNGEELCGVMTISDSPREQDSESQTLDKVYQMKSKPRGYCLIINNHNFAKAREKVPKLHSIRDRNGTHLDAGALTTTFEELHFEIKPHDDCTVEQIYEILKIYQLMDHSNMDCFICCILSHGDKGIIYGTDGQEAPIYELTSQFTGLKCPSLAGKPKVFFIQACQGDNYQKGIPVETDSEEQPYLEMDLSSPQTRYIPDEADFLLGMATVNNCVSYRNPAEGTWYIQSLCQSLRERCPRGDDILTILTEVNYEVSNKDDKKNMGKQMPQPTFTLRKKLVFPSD

Molecular target: caspase-8 (human (endogenous in OCI-AML3)) (UniProt Q14790)
Assay: co-IP; endogenous proteins in OCI-AML3 cell lysate (IP lysis buffer); protein A/G beads with the indicated primary antibodies or isotype IgG at 4 °C overnight; washed three times with PBS-T; Western blot

B1: tumor protein p53 inducible nuclear protein 2 (protein, UniProt Q8IXH6 1-220)
chain: MFQRLSSLFFSTPSPPEDPDCPRAFVSEEDEVDGWLIIDLPDSYAAPPSPGAAPAPAGRPPPAPSLMDESWFVTPPACFTAEGPGLGPARLQSSPLEDLLIEHPSMSVYVTGSTIVLEPGSPSPLPDAALPDGDLSEGELTPARREPRAARHAAPLPARAALLEKAGQVRRLQRARQRAERHALSAKAVQRQNRARESRPRRSKNQSSFIYQPCQRQFNY
B1 was tested, and the binding was “binds”.
